Measured values reported in publication PMC8312462.
These are yes or no findings as the source states them, for the method shown. In cells and extracts the contact can be indirect. Binding calls can cover weak binding; strength is not graded here.

Target: WNT (human (endogenous in BMSCs))
Test: co-IP; cells lysed 20 min at 4 C in 50 mM Tris-HCl, 150 mM NaCl, 1% NP-40, 10% glycerol, 0.1% SDS, 2 mM Na2EDTA; immunoprecipitated with antibody and protein A+G agarose beads at 4 C, washed 3 times, western blot; IgG as control

binding: binds
B1: Wnt inhibitor (WIF)-1 (protein, UniProt Q9Y5W5 29-379)
chain: GPPQEESLYLWIDAHQARVLIGFEEDILIVSEGKMAPFTHDFRKAQQRMPAIPVNIHSMNFTWQAAGQAEYFYEFLSLRSLDKGIMADPTVNVPLLGTVPHKASVVQVGFPCLGKQDGVAAFEVDVIVMNSEGNTILQTPQNAIFFKTCQQAECPGGCRNGGFCNERRICECPDGFHGPHCEKALCTPRCMNGGLCVTPGFCICPPGFYGVNCDKANCSTTCFNGGTCFYPGKCICPPGLEGEQCEISKCPQPCRNGGKCIGKSKCKCSKGYQGDLCSKPVCEPGCGAHGTCHEPNKCQCQEGWHGRHCNKRYEASLIHALRPAGAQLRQHTPSLKKAEERRDPPESNYIW
